Assay results taken from paper PMC11011687.
No constants are given. Whether binding was seen depends on the method and setting. In cells and extracts the contact can be indirect. Some binding calls cover weakened binding; strength is not graded here.

The chains behind the UniProt entries cited, without tags or fusion partners.
UniProt Q04206: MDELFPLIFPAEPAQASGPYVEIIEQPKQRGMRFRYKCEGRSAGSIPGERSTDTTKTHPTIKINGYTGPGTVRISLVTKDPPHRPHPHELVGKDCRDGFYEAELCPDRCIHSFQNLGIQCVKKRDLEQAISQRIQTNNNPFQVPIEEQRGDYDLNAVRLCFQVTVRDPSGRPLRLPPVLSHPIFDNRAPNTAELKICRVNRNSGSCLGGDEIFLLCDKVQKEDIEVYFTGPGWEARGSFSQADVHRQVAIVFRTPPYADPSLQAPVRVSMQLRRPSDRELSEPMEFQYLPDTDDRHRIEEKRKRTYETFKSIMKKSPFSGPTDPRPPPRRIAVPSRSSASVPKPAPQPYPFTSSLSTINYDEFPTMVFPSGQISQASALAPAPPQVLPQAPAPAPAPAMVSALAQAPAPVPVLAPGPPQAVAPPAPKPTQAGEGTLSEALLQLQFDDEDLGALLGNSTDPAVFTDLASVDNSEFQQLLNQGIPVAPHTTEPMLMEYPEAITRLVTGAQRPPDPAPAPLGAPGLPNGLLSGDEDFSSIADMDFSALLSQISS

Molecular target: NF-κB p65, endogenous in 786-O (human (endogenous in 786-O)) (UniProt Q04206)
Experiment: co-IP; 786-O stable cell lines expressing GFP-tagged A1CF or the GFP-tag alone; anti-p65 antibody on Protein A agarose beads; immunoblot of lysates

binding: binds
B1: NF-κB-repressing factor (NKRF), endogenous in 786-O (protein, UniProt O15226 1-690)
chain: MEKILQMAEGIDIGEMPSYDLVLSKPSKGQKRHLSTCDGQNPPKKQAGSKFHARPRFEPVHFVASSSKDERQEDPYGPQTKEVNEQTHFASMPRDIYQDYTQDSFSIQDGNSQYCDSSGFILTKDQPVTANMYFDSGNPAPSTTSQQANSQSTPEPSPSQTFPESVVAEKQYFIEKLTATIWKNLSNPEMTSGSDKINYTYMLTRCIQACKTNPEYIYAPLKEIPPADIPKNKKLLTDGYACEVRCQNIYLTTGYAGSKNGSRDRATELAVKLLQKRIEVRVVRRKFKHTFGEDLVVCQIGMSSYEFPPALKPPEDLVVLGKDASGQPIFNASAKHWTNFVITENANDAIGILNNSASFNKMSIEYKYEMMPNRTWRCRVFLQDHCLAEGYGTKKTSKHAAADEALKILQKTQPTYPSVKSSQCHTGSSPRGSGKKKDIKDLVVYENSSNPVCTLNDTAQFNRMTVEYVYERMTGLRWKCKVILESEVIAEAVGVKKTVKYEAAGEAVKTLKKTQPTVINNLKKGAVEDVISRNEIQGRSAEEAYKQQIKEDNIGNQLLRKMGWTGGGLGKSGEGIREPISVKEQHKREGLGLDVERVNKIAKRDIEQIIRNYARSESHTDLTFSRELTNDERKQIHQIAQKYGLKSKSHGVGHDRYLVVGRKRRKEDLLDQLKQEGQVGHYELVMPQAN
